Experimental data reported in article PMC8155215, “The splicing factor XAB2 interacts with ERCC1-XPF and XPG for R-loop processing”.
Results are given in words; binding and its absence hold for the method and conditions named. Binding seen in cells or lysates may run through a third protein. Some results given as binding are weak or reduced against the parent protein; the word gives no strength. Tags and fused reporters may be left off the sequences shown.

Protein sequences, listed by entry. Tags and fused reporters are not part of them.
UniProt Q64267: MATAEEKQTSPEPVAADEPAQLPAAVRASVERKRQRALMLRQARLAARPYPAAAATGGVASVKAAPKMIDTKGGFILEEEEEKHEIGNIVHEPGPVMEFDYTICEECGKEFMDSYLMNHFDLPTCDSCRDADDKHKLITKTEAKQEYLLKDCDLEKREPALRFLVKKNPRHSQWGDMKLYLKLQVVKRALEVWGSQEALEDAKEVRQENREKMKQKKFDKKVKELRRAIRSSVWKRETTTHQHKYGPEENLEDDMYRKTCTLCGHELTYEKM
UniProt Q99KP6: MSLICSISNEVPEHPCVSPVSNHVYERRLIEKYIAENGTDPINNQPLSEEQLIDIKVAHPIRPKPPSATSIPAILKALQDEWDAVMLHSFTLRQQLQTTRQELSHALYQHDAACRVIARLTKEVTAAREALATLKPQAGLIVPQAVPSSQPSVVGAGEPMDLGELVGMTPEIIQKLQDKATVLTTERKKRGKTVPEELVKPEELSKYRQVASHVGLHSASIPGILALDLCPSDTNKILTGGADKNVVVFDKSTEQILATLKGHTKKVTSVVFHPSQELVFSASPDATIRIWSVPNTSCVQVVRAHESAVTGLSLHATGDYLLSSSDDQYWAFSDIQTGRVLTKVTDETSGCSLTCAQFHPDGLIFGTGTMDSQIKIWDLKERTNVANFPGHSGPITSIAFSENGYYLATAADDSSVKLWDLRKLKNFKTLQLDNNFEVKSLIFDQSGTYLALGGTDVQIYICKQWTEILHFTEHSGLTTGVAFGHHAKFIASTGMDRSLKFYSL

B1: Aquarius (AQR) (protein, UniProt Q8CFQ3 1-1481)
chain: MAAPAQPKKIVAPTVSQINAEFVTQLACKYWAPHIKKKSPFDIKVIEEIYEKEIVKSRFAIRKIMLLEFSQYLENYLWMNYSPEVSSKAYLMSICCMVNEKFRENVPAWETFKKKPDHFPFFFKCILKAALAETDGEFSLHEQTLLLLFLDHCFNSLEVDLIRSQVQQLISLPMWMGLQPARLELELKKTPKLRKFWNLIKKNDEKMDPEAREQAYQERRFLSRLIQKFISVLKSIPLSEPVTMDKVHYCERFIELMIDLEALLPTRRWFNTILDDSHLLVHCYLSSLVHREEDGHLFSQLLDMLKFYTGFEINDQTGNALTENEMTTIHYDRITSLQRAAFAHFPELYDFALSNVAEVDARDSLVKFFGPLSSNTLHQVASYLCLLPTLPKNEDTTFDKEFLLELLVSRHERRISQIQQLNQMPLYPTEKIIWDENIVPTEYYSGEGCLALPKLNLQFLTLHDYLLRNFNLFRLESTYEIRQDIEDSVSRMKPWQSEYGGVVFGGWARMAQPIVAFTVVEVAKPNIGENWPTRVRADVTINLNVRDHIKDEWEGLRKHDVCFLITVRPTKPYGTKFDRRRPFIEQVGLVYVRGCEIQGMLDDKGRVIEDGPEPRPNLRGESRTFRVFLDPNQYQQDMTNTIQNGAEDVYDTFNVIMRRKPKENNFKAVLETIRNLMNTDCVVPDWLHDIILGYGDPSSAHYSKMPNQIATLDFNDTFLSIEHLKASFPGHNVKVTVSDPALQIPPFRITFPVRSGKGKKRKDADGEEDDTEEAKTLIVEPHVIPNRGPYPYNQPKRNTIQFTHTQIEAIRAGMQPGLTMVVGPPGTGKTDVAVQIISNIYHNFPEQRTLIVTHSNQALNQLFEKIMALDIDERHLLRLGHGEEELETEKDFSRYGRVNYVLARRIELLEEVKRLQKSLGVPGDASYTCETAGYFFLYQVMSRWEEYMSRVKNSGTACPDAAPDAAQVATFFPFHEYFANAPQPIFKGRSYEEDMEIAEGCFRHIKKIFTQLEEFRASELLRSGLDRSKYLLVKEAKIIAMTCTHAALKRHDLVKLGFKYDNILMEEAAQILEIETFIPLLLQNPQDGFSRLKRWIMIGDHHQLPPVIKNMAFQKYSNMEQSLFTRFVRVGVPTVDLDAQGRARASLCNLYNWRYKNLGNLPHVQLLPEFSTANAGLLYDFQLINVEDFQGVGESEPNPYFYQNLGEAEYVVALFMYMCLLGYPADKISILTTYNGQKHLIRDIINRRCGNNPLIGRPNKVTTVDRFQGQQNDYILLSLVRTRAVGHLRDVRRLVVAMSRARLGLYIFARVSLFQNCFELTPAFSQLTARPLHLHIIPTEPFPTSRKNGERPPHEVQVIKNMPQMANFVYNMYMHLIQTTHHYHQTFLQLPPAMVEEGEEGQSQETEMEAEEETVSAQGNLTPSPADASLSQETPAAQPDCSSQTEDTSAPCDIATAAEPVSAAAEAATPQDAESVPTETE
B2: BCAS2 (protein, UniProt Q9D287 1-225)
chain: MAGTGLVAGEVVVDALPYFDQGYEAPGVREAAAALVEEETRRYRPTKNYLSYLTAPDYSAFETDIMRNEFERLAARQPIELLSMKRYELPAPSSGQKNDITAWQECVNNSMAQLEHQAVRIENLELMSQHGCNAWKVYNENLVHMIEHAQKELQKLRKHIQDLNWQRKNMQLTAGSKLREMESNWVSLVSKNYEIERTIVQLENEIYQIKQQHGEANKENIRQDF
B3: SNRP40 (protein, UniProt Q6PE01 1-358)
chain: MIEQQKRKGPELPLVPVKRPRHELLLGAAGAGPGAGPQQATPGALLQAGPPRCSSLQAPIMLLSGHEGEVYCCKFHPNGSTLASAGFDRLILLWNVYGDCDNYATLKGHSGAVMELHYNTDGSMLFSASTDKTVAVWDSETGERVKRLKGHTSFVNSCYPARRGPQLVCTGSDDGTVKLWDIRKKAAVQTFQNTYQVLAVTFNDTSDQIISGGIDNDIKVWDLRQNKLTYTMRGHADSVTGLSLSSEGSYLLSNAMDNTVRVWDVRPFAPKERCVKIFQGNVHNFEKNLLRCSWSPDGSKIAAGSADRFVYVWDTTSRRVLYKLPGHAGSINEVAFHPDEPIILSASSDKRLYMGEIQ
B4: XPG endonuclease (protein, UniProt P35689 1-1170)
chain: MGVQGLWKLLECSGHRVSPEALEGKVLAVDISIWLNQALKGVRDSHGNVIENAHLLTLFHRLCKLLFFRIRPIFVFDGDAPLLKKQTLAKRRQRKDSASIDSRKTTEKLLKTFLKRQALKTAFRSSRHEAPPSLTQVQRQDDIYVLPPLPEEEKHSSEEEDEKQWQARMDQKQALQEEFFHNPQAIDIESEDFSSLPPEVKHEILTDMKEFTKRRRTLFEAMPEESNDFSQYQLKGLLKKNYLNQHIENVQKEMNQQHSGQIQRQYQDEGGFLKEVESRRVVSEDTSHYILIKGIQGKKVMDVDSESLPSSSNVHSVSSNLKSSPHEKVKPEREPEAAPPSPRTLLAIQAAMLGSSSEDEPESREGRQSKERNSGATADAGSISPRTCAAIQKALDDDNDEKVSGSSDDLAEKMLLGSGLEQEEHADETAERGGGVPFDTAPLTPSVTEVKECVTSGSSANGQTDSAHSFTTASHRCDTPKETVSLARAVKEASQISSECEVEGRPAALSPAFIGTPSSHVSGVLSEREPTLAPPTTRTHSDQGIDIHPEDPELQNGLYPLETKCNSSRLSSDDETEGGQNPAPKACSTVHVPAEAMSNLENALPSNAEERGDFQETIQLREVPEAAARELISAPKPMGPMEMESEESESDGSFIEVQSVVSNSELQTESSEASTHLSEKDAEEPRETLEEGTSRDTECLLQDSSDIEAMEGHREADIDAEDMPNEWQDINLEELDALESNLLAEQNSLKAQKQQQDRIAASVTGQMFLESQELLRLFGVPYIQAPMEAEAQCAMLDLTDQTSGTITDDSDIWLFGARHVYKNFFNKNKFVEYYQYVDFYSQLGLDRNKLINLAYLLGSDYTEGIPTVGCVTAMEILNEFPGRGLDPLLKFSEWWHEAQNNKKVAENPYDTKVKKKLRKLQLTPGFPNPAVADAYLRPVVDDSRGSFLWGKPDVDKISTFCQRYFGWNRMKTDESLYPVLKHLNAHQTQLRIDSFFRLAQQEKQDAKLIKSHRLNRAVTCILRKEREEKAPELTKVTEALDDAKGKTQKRELPYKKETSVPKRRRPSGNGGFLGDPYCSESPQESSCEDGEGSSVMSARQRSAAESSKISCSDVPDLVRDPPHGRQGCVSTSSSSEDDEDKAKTVLVTARPVFGKKKLKLKSMKRRKKKT

Experiments:
[1] = target: T1, biotin-tagged XAB2 (XPA-binding protein 2) from aviXab2+/+;birA knock-in mice (mouse) (UniProt Q9DCD2); assay: pull-down; bXAB2 captured on M-280 streptavidin beads from nuclear extracts of primary bXAB2 MEFs, western blot; untreated, UV-irradiated (10 J/m2) or tRA-treated cells; BirA MEFs as control
T1 sequence (chain, biotin on the 15aa Avitag (added in vivo by the BirA ligase)): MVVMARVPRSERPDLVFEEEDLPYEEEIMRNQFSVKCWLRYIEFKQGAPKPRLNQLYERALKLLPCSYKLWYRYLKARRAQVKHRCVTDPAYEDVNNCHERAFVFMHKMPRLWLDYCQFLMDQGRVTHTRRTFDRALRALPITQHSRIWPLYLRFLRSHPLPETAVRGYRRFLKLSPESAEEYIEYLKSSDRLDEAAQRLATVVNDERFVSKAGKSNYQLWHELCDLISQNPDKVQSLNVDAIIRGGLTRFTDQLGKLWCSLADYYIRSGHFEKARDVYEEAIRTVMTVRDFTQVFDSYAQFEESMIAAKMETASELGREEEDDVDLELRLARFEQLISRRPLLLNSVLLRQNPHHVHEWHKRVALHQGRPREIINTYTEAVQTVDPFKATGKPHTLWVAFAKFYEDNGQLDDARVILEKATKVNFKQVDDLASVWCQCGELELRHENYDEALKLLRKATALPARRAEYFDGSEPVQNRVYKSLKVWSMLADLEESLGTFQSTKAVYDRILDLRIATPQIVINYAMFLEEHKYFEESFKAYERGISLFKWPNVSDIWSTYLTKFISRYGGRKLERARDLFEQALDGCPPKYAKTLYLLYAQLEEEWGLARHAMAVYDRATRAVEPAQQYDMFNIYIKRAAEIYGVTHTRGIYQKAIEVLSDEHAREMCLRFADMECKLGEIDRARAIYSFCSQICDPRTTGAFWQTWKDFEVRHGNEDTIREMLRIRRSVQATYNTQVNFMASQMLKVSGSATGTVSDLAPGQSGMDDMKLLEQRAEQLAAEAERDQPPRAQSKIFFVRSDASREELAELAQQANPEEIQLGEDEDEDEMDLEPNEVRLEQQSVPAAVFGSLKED

[2] = target: T1, biotin-tagged XAB2 (XPA-binding protein 2) from aviXab2+/+;birA knock-in mice (mouse); assay: pull-down; bXAB2 captured on M-280 streptavidin beads from nuclear extracts of P15 bXAB2 livers, western blot; BirA livers as control
[3] = target: T1, biotin-tagged XAB2 (XPA-binding protein 2) from aviXab2+/+;birA knock-in mice (mouse); assay: pull-down; bXAB2 captured on streptavidin beads from nuclear extracts of bXAB2 MEFs (basal or tRA-treated), with RNase H treatment, western blot
[4] = target: T1, biotin-tagged XAB2 (XPA-binding protein 2) from aviXab2+/+;birA knock-in mice (mouse); assay: pull-down; bXAB2 captured on M-280 streptavidin beads from nuclear extracts of primary bXAB2 MEFs, western blot; untreated, UV-irradiated (10 J/m2) or tRA-treated cells; BirA MEFs as control; remark: listed apart in the source
[5] = target: T2, biotin-tagged xeroderma pigmentosum complementation F (bXPF) (mouse) (UniProt Q9QZD4); assay: pull-down; bXPF captured on M-280 streptavidin beads from nuclear extracts of tRA-treated cells, western blot; said to be independent of DNA
T2 sequence (chain, biotin (biotin-tagged)): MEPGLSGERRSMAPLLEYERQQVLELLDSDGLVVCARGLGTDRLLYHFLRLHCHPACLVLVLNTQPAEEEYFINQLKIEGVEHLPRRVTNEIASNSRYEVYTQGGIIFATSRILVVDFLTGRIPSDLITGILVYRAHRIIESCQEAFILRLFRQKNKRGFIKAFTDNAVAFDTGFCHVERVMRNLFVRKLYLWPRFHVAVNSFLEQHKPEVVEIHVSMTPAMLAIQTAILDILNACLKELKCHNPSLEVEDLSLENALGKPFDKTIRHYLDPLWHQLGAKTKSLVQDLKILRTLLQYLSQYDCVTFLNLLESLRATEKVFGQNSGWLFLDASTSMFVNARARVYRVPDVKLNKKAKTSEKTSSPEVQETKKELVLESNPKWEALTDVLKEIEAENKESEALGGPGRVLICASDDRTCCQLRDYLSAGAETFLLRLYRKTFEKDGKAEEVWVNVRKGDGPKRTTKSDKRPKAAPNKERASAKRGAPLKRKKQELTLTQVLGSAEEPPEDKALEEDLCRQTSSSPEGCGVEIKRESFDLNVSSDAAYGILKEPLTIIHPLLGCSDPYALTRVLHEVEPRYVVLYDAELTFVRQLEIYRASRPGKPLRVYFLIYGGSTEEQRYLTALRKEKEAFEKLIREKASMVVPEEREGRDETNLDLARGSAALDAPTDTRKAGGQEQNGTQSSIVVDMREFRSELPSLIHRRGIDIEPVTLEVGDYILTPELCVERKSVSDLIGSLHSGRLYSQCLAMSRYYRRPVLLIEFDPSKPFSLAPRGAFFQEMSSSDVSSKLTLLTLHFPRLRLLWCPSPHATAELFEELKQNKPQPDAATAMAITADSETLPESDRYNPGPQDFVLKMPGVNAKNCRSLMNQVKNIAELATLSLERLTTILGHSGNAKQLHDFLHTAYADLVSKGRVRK

Row | Molecule | binding [1] | binding [2] | binding [4] | other results
1 | xeroderma pigmentosum, complementation group A protein (XPA) (from UniProt Q64267 1-272) | binds |  |  | 
2 | pre-mRNA-processing factor 19 (PRP19) (from UniProt Q99KP6 1-504) | binds | binds |  | binding [3]: binds
3 | B1 |  | binds |  | 
4 | B2 |  | binds | binds | 
5 | B3 |  |  | binds | 
6 | B4 |  |  |  | binding [5]: binds
